Some of these results come from one statement about several compounds together.
tested on: Spiroplasma citri; experiment: Activity Against Spiroplasma citri, Sensitivity Test; assay type: cell-based; conditions: in words
Protocol: D. Data for Activity Against Spiroplasma citri, Sensitivity Test
Frozen broth cultures are diluted to a predetermined titre of 100 color changing units for the test. Organisms are grown in Difco PPLO broth base with added serum, glucose, phenol red, ampicillin, thallium acetate and yeast extract. Incubation is at 32° C. Incubation with varying levels of the test compound in the above medium are performed in well plates and an amount of Spiroplasma citri cells is added that will produce a color change by a fixed time of growth. The lowest concentration of compound that fails to produce a color change or gives a two day delay in color change indicates minimum inhibitory concentration.
The compounds of the invention included in this test and the results are as follows: […]

SMILES	activity against the mycoplasma, Spiroplasma citri
Nc1nc(N)c(CCCNc2ccc(C(=O)N[C@@H](CCC(=O)O)C(=O)O)cc2)c(=O)[nH]1 [Example 1, N-[4-[3-(2,4-diamino-1,6-dihydro-6-oxo-5-pyrimidinyl)propylamino]benzoyl]-L-glutamic acid]	active
Nc1nc(N)c(CCCN(C=O)c2ccc(C(=O)N[C@@H](CCC(=O)O)C(=O)O)cc2)c(=O)[nH]1 [Example 3, N-[4-[3-(2,4-Diamino-1,6-dihydro-6-oxo-5-pyrimidinyl)-N-formylpropylamino]benzoyl]-L-glutamic acid]	active
CN(CCCc1c(N)nc(N)[nH]c1=O)c1ccc(C(=O)N[C@@H](CCC(=O)O)C(=O)O)cc1 [Example 2, N-[4-[3-(2,4-diamino-1,6-dihydro-6-dihydro-6-oxo-5-pyrimidinyl)-N-methylpropylamino]benzoyl]-L-glutamic acid]	active
